The record followed here is publication PMC5603515.

Experiment [1] deals with tyrosine phosphatase PTPN13 (mouse (endogenous in mouse brain)) (UniProt Q64512). Nature of the experiment: co-IP; PTPN13 immunoprecipitated with anti-PTPN13 antibody from P2 homogenates of mouse brain under non-denaturing conditions (Pierce Classic IP Kit); rabbit IgG as negative control; with or without 10 uM calpain-2 C-terminal peptide for 1 h before co-IP.
Another experiment has as its target T1, PDZ domain 3 of PTPN13 (UniProt Q64512).
T1 sequence: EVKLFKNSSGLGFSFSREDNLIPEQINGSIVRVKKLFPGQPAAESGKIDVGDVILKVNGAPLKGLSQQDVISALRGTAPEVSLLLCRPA
Nature of the experiment: peptide or protein array; 1 ug of hexahistidine-tagged PDZ domain fusion proteins spotted on nitrocellulose and dried overnight, overlaid with GST-alone, GST-calpain-1-CT or GST-calpain-2-CT (800 nM); HRP-coupled anti-GST antibody, chemiluminescence; both purified.

A further experiment has as its target T2, PDZ domain 4 of PTPN13 (UniProt Q64512).
T2 sequence: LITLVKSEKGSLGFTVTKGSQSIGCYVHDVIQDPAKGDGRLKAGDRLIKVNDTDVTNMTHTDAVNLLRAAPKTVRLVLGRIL
The experiment is described as above.

The next experiment deals with T3, PDZ domain 5 of PTPN13 (UniProt Q64512).
T3 sequence: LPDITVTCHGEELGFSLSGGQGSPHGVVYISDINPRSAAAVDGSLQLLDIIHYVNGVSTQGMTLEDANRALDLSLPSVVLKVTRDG
The description is as above.

Results are given in words; binding and its absence hold for the method and conditions named. Binding calls can cover weak binding; strength is not graded here. For some of these results: Binding seen in cells or lysates may run through a third protein.

In the case of tau (from UniProt P10637-2), the binding entry in experiment [1] was “binds”.
On to “GST-calpain-2 C-terminus (domain or fragment)”, for which the binding entry with PDZ domain 3 of PTPN13, with PDZ domain 4 of PTPN13 and with PDZ domain 5 of PTPN13 was “binds” each time.
Turning to “GST-calpain-1 C-terminus (domain or fragment)”, the binding entry with PDZ domain 3 of PTPN13, in the experiment with PDZ domain 4 of PTPN13 and with PDZ domain 5 of PTPN13 was “no binding (tested: 800 nM)” each time.
